Screening data, single-dose tests

Protein sequences, listed by entry. Tags and fused reporters are not part of them. Residues count along the entry.
UniProt I6X8D2, whole entry: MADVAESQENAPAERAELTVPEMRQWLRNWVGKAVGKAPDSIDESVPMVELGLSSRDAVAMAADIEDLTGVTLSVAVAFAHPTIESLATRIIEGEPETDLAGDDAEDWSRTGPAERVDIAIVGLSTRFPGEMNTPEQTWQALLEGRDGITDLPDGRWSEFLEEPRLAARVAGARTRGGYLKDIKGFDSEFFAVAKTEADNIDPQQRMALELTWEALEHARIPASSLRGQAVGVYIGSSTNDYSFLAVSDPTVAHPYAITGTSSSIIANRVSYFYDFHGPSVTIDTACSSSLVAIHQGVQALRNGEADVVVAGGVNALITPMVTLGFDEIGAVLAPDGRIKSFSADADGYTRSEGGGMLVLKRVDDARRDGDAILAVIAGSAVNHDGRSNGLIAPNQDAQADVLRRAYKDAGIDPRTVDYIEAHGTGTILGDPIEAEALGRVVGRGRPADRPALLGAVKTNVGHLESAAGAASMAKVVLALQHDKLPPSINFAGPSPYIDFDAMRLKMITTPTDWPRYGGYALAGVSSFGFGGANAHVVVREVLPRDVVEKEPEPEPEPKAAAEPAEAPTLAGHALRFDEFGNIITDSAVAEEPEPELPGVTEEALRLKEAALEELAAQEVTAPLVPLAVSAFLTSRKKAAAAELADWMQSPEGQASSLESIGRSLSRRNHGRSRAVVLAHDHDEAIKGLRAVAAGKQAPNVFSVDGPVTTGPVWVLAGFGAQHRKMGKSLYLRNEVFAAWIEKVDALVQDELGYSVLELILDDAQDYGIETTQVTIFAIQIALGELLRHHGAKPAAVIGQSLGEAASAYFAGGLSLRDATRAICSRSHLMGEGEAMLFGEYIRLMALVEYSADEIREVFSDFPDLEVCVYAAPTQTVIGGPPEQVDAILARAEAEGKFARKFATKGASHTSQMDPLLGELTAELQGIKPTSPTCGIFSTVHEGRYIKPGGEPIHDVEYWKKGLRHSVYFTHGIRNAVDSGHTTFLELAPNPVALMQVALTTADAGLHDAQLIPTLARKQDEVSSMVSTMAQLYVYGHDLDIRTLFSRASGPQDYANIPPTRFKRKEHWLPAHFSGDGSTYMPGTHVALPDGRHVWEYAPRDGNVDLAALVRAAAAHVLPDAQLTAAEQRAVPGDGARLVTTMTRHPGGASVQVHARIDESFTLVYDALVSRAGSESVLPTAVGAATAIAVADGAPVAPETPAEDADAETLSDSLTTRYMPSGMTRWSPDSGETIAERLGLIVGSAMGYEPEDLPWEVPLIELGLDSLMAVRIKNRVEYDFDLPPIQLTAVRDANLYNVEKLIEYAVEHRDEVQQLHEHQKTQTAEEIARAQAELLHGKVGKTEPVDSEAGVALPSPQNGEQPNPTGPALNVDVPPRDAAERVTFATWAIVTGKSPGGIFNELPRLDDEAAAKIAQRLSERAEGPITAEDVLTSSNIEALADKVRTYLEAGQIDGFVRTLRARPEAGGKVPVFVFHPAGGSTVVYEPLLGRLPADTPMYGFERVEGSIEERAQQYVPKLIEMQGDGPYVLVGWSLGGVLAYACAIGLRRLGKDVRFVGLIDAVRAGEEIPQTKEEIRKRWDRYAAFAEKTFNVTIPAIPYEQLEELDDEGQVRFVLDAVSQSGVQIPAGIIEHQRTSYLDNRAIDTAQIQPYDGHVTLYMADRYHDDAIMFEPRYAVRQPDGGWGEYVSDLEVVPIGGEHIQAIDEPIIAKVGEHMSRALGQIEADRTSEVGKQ
UniProt A4I591, 1-473: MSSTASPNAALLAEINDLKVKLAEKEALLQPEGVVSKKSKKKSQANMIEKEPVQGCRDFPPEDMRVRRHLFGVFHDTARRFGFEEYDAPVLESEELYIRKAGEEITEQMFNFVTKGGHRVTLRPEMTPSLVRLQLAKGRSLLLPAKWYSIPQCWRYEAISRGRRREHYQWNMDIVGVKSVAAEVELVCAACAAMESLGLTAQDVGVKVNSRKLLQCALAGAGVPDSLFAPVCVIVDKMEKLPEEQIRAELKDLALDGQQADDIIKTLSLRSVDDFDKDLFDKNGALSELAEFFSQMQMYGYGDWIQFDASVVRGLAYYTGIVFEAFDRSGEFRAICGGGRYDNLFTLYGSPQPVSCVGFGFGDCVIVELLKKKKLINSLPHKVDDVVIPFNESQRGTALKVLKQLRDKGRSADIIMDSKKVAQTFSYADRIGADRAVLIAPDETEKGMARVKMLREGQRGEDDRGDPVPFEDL

A: 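Cell assay of Leishmania donovani living inside macrophages; the read-out is not stated. Tested at 30 µM. Higher reads as stronger inhibition (inferred: compounds with an IC50 in retests scored well above the rest). Size under these conditions: about 69,000 compounds, about 1,000 of them at 50% or above in at least one test.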
B: 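Enzyme assay of the thioesterase domain of polyketide synthase 13; the read-out is not stated. Target: Polyketide synthase Pks13, Mycobacterium tuberculosis (UniProt I6X8D2). Compounds at 30 µM. Higher reads as stronger inhibition (inferred from which compounds were picked for retests). Of about 67,000 compounds tested this way, about 300 (0.46%) reached 50% or more in at least one test.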
C: 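Enzyme assay of histidyl-tRNA synthetase; the read-out is not stated. Target: Histidine-tRNA ligase, Leishmania infantum (UniProt A4I591). Concentration: 30 µM. The record gives no direction; compounds that gave an IC50 in retests scored well above the rest, so higher reads as stronger inhibition. The assay is labelled LdHisRS but filed under L. infantum. Of about 69,000 compounds tested this way, about 410 (0.6%) reached 50% or more in at least one test.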

Results are given as percent effect. The record does not define 0% and 100%; most values in the screen are far below 50% and negative numbers occur (in some assays of this library far below -100). This is an unselected part of the compounds tested.

* O=S(=O)(NC1CCC2(CC1)OCCO2)c1ccccc1Br | A: -2.138%; B: -22.47%; C: 13.79%
* COc1cc(C)sc1C(=O)N1CCC(Nc2cccnc2)CC1 | A: 18.5%; B: 0.4155%; C: 15.24%
* O=C(c1cncs1)N1CCC(Cc2cnc3[nH]ccc3c2)CC1 | A: 16.97%; B: 5.304%; C: 13.54%
* Cc1cc(-c2cnc(NCc3ccccn3)nc2C(C)C)on1 | A: -8.284%; B: 0.6113%; C: 9.375%
* COCc1cc(NCCc2ccc(F)cc2)n2nccc2n1 | A: 25.38%; B: -0.136%; C: 13.46%
* Cc1nc(C)n(CC(C)C(=O)N2CCCN(C3CCCC3)CC2)n1 (stereo not shown) | A: 21.36%; B: -13.15%; C: 18.03%
* N#Cc1cccc(NC(=O)N2CCC3(CCC(=O)N(C4CC4)C3)CC2)c1 | A: -15.78%; B: 2.316%; C: 9.375%
* CCNC(=O)N1CCC2(CC1)CCn1c(-c3ccccc3)cnc12 | A: 22.88%; B: -28.76%; C: 15.38%
* CCOCC(O)CN1CCN(C(=O)c2cccnc2OC)CC1 (stereo not shown) | A: -19.82%; B: -2.72%; C: 2.74%
* CN1CCN(C(=O)c2cc3occc3n2Cc2ccccc2F)CC1 | A: -14.66%; B: 7.75%; C: 14.29%
* O=C(CCN1CCCC1)N1CC[C@@H](c2ccc3ccccc3c2)[C@H](O)C1 | A: 27.72%; B: -28.71%; C: 49.12%
* CC(C)(C)c1n[nH]cc1CNCC1CCN(C2CC2)C1.Cl (stereo not shown) | A: 23.78%
* CCN(CC)c1nc2ccsc2c(=O)n1CCC(=O)NC1CCCC1 | A: 3.153%; B: -10.65%; C: 23.66%
* C=C(C)COc1ccccc1C(=O)NCCCc1nnn[nH]1 | A: 7.454%; B: -23.3%; C: 5.594%
* Cc1ncoc1C(=O)N1CCn2c(COc3cccnc3)cnc2C1C (stereo not shown) | A: 17.88%; B: -11.58%; C: -3.636%
* CCC(Nc1nccc(C2CCCC2)n1)c1ccncc1 (stereo not shown) | A: -14.59%; B: -15.88%; C: 14.47%
* O=C(O)C(F)(F)F.[H][C@@]12CCN(Cc3ccccc3F)[C@]1([H])CC[C@@H](C(=O)NC)O2 | A: -5.921%
* Cc1cc(N2CCCC(c3nccnc3N(C)C)C2)ncn1 (stereo not shown) | A: 13.63%; B: 20.32%; C: 12.95%
* CNC(=O)[C@H]1C[C@@H]2CN(C(=O)c3ccncc3)C[C@@H]2N1S(C)(=O)=O | B: -24.78%; C: 18.06%
* Cc1cc(C(F)(F)F)cc(=O)n1CCn1cc(Cl)cn1 | A: 35.42%; B: -24.12%; C: 10.83%
* CN(CCC1CCOCC1)C(=O)C1CCC(=O)N(Cc2ccccn2)C1 (stereo not shown) | A: -38.04%; B: -2.783%; C: -8%
* O=C(c1ccc(OCC2CC2)cc1)N1CCOCC1c1ncon1 (stereo not shown) | A: 1.384%; B: 1.673%; C: 19.18%
* NC(=O)NCC1CCCCN1C(=O)c1ccc(Cl)s1 (stereo not shown) | A: 8.837%; B: -19.9%; C: 23.53%
* O=C(CCc1ccccc1)N1CCCC(c2n[nH]c3nccnc23)C1 (stereo not shown) | A: 11.91%; B: 20.18%; C: 13.54%
* Cc1nc(N2CCOCC2)nc2c1CCN(C(=O)C1(C#N)CC1)CC2 | A: -6.278%; C: 20%
* CCOCC1CN(CCN(C)C)Cc2cnn(CC3CCCC3)c21.O=C(O)C(F)(F)F.O=C(O)C(F)(F)F (stereo not shown) | A: 26.94%
* O=C(O)C1(n2ccnc2)CCN(Cc2cc3ccccc3o2)CC1 | A: 10.64%; B: -49.4%; C: 2.41%

3 of the entries, repeated:

Result for O=S(=O)(NC1CCC2(CC1)OCCO2)c1ccccc1Br was A: -2.138%; B: -22.47%; C: 13.79%.
Result for CNC(=O)[C@H]1C[C@@H]2CN(C(=O)c3ccncc3)C[C@@H]2N1S(C)(=O)=O was B: -24.78%; C: 18.06%.
Result for O=C(c1ccc(OCC2CC2)cc1)N1CCOCC1c1ncon1 (stereo not shown) was A: 1.384%; B: 1.673%; C: 19.18%.

The values are deposited in ChEMBL (CHEMBL3988442, “University of Dundee, Small-Polar-MMV Screening Library” (2021)).